# Data published in PubChem BioAssay AID743255 (National Center for Advancing Translational Sciences (NCATS), 2014).
# By UniProt entry, the sequences of proteins in these tests, tags left out. Where a name states a change or a piece, a line headed by the entry shows the natural chain unless it says otherwise.
# UniProt O94782: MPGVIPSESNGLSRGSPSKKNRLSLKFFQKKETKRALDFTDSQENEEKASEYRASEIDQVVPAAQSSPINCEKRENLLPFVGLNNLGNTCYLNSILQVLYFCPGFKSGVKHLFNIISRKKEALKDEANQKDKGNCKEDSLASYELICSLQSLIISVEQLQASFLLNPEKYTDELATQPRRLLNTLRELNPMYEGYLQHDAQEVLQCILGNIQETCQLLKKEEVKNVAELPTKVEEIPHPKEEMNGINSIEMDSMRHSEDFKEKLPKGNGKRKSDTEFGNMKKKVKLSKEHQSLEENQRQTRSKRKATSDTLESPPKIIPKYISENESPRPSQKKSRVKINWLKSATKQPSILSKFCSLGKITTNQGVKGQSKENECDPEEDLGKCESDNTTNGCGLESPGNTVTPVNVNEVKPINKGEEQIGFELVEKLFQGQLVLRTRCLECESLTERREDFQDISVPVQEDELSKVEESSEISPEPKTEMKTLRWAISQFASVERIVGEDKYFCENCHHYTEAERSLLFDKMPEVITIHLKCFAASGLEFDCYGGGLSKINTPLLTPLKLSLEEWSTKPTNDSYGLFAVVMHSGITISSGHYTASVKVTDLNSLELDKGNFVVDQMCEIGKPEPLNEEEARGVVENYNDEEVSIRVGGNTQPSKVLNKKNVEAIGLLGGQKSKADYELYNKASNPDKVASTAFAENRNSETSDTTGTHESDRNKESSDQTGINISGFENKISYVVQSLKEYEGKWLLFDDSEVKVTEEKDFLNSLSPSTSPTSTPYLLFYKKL
# Out of some 390,000 compounds screened, about 910 (0.23%) were called active. The shares of active, inactive and inconclusive entries below differ from those in the screen. Calls come from the whole dose curve; as a rule, active = well fitted inhibition curve with a large enough effect; inconclusive = small, poorly fitted or top-dose-only effect; inactive = no such curve, though single readings can be large or run the other way. Potencies beside an inconclusive call are fits to weak or partial responses and may not hold up.
# Target: Ubiquitin carboxyl-terminal hydrolase 1 (Homo sapiens) (UniProt O94782)
# Assay: Inhibitors of USP1/UAF1: Primary Screen; note: nearly all actives have a fitted effect of over 60% in size
# Conditions: recombinant USP1/UAF1, Ub-Rhodamine cleavage fluorescence; activity change, negative = inhibition: at 57.1 µM (top of the series)
# How it was run: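 In this screen, compounds sit with the deubiquitinase complex (1nM) for 15 min at room temperature before Ub-Rho is added at 150nM final. Fluorescence rise is then followed for 6 reads every 60 seconds.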
# % is set by controls: 0 for no effect and ±100 for the full control effect; potency is the fitted concentration of half-maximal effect.
Compound,Potency,"activity change, negative = inhibition"
Cc1cc(N2CCN(c3ccccc3)CC2)nc(-c2ccccc2)n1,"inconclusive: 14.1 µM [inhibitor, partial curve]",–
COc1cc(Cl)c(C)cc1NC(=O)NC1COc2ccccc2C1 (centres undefined),"inconclusive: 0.1 µM [inhibitor, full curve]",–
CN(C)CCNC=C(C(=O)Nc1ccc(Cl)cc1Cl)C(=O)Nc1ccc(Cl)cc1Cl,inactive,–
NNc1nc(N)c2c(n1)-c1ccccc1CC21CCCC1,"inconclusive: 25.1 µM [inhibitor, partial curve]",–
Cc1cc(C)cc(NC2=C(N)C(=O)c3ccccc3C2=O)c1,"inconclusive: 28.2 µM [inhibitor, partial curve]",–
O=C(Cn1ncc2c1-c1ccccc1OC2)Nc1nc2ccccc2s1,"inconclusive: 1.41 µM [inhibitor, full curve]",–
CCOC(=O)N1CCN(C2=C(NS(=O)(=O)c3ccccc3)C(=O)c3ccccc3C2=O)CC1,"inconclusive: 35.5 µM [inhibitor, partial curve]",–
O=C(c1ccco1)N1CCN(C(=O)c2cnn(-c3ccc(Cl)cc3)c2C2CCNCC2)CC1,"inconclusive: 0.282 µM [inhibitor, full curve, poor fit]",–
COc1cccc([C@H]2Nc3ccc(S(=O)(=O)Nc4cc(C)ccc4C)cc3[C@H]3C=CC[C@H]32)c1,"inconclusive: 3.98 µM [inhibitor, partial curve]",–
COc1ccc(S(=O)(=O)Cc2ccc(C(=O)N3CCN(c4ccccc4F)CC3)o2)cc1,"inconclusive: 3.55 µM [inhibitor, full curve, poor fit]",–
Cn1cc(SCC(=O)Nc2nc3ccccc3s2)c2ccccc21,inactive,–
CCOc1ccc(NC(=S)Nc2cccc3ccccc23)cc1,"inconclusive: 11.2 µM [inhibitor, full curve, poor fit]",–
Cc1nc(SCC(=O)c2ccc(F)cc2)n[nH]1,inactive,–
COc1ccccc1C(=O)NC(=S)Nc1ccc(Cc2ccncc2)cc1,–,inconclusive: -39.2% [inhibitor]
CCOC(=O)c1ccccc1NC(=O)c1sc2ncn(CC)c(=O)c2c1C,inactive,–
Cc1ccc(-n2nnnc2Sc2nc([N+](=O)[O-])nn2C)c(C)c1,inactive,–
CC1CN=C(c2ccccc2)O1 (centres undefined),"inconclusive: 35.5 µM [inhibitor, single point]",–
CC(c1ccc(F)cc1)n1c(-c2ccc3ccccc3n2)n[nH]c1=S (centres undefined),"inconclusive: 0.891 µM [inhibitor, full curve, poor fit]",–
O=C1CCCCCCC1Sc1ccccc1[N+](=O)[O-] (centres undefined),inactive,–
O=C(NC1CC1)C1=C[C@@H](c2coc3ccccc3c2=O)C[C@@H](OCCCCO)O1,"inconclusive: 31.6 µM [inhibitor, partial curve, poor fit]",–
CCOC(=O)[C@H]1[C@H]2COc3ccc(Cl)cc3[C@@H]2N2C(=O)c3ccc(F)cc3NC(=O)[C@@]12C,"inconclusive: 28.2 µM [inhibitor, partial curve]",–
[O-]C(=C(C(=S)Nc1cccc2ccccc12)[n+]1cccc(CO)c1)c1ccc(Cl)s1,inactive,–

Compound,Potency,"activity change, negative = inhibition"
Cc1ccc(NC(=O)CCl)c(C)c1,inactive,–
O=C(NCC1CCCCC1)c1cc2ccccc2cc1O,inactive,–
O=[N+]([O-])c1ccccc1N=Nc1ccc(O)cc1O,"inconclusive: 3.55 µM [inhibitor, full curve, poor fit]",–
O=C(Cn1cc(COc2ccccc2C(F)(F)F)nn1)c1ccc(O)cc1,"inconclusive: 0.355 µM [inhibitor, full curve, poor fit]",–
O=C(CCNC(=O)C1CCN(S(=O)(=O)c2ccc(F)cc2)CC1)NCc1ccncc1,inactive,–
COc1ccc2[nH]c(=O)c(CN(Cc3ccccc3OC)Cc3nnnn3CC3CCCO3)cc2c1 (centres undefined),inactive,–
Fc1ccc(C2=NC(c3cccc(C(F)(F)F)c3)=Nc3ccccc3N2)cc1,"inconclusive: 4.47 µM [inhibitor, single point]",–
COc1ccc(-c2cc(C(F)F)n3ncc(C(=O)N4CCc5ccccc5C4)c3n2)cc1,"inconclusive: 22.4 µM [inhibitor, partial curve]",–
O=S(=O)(Nc1ccc(Cl)cc1)c1ccc(N2CCOCC2)c(NC(=S)NC2CC2)c1,inactive,–
COc1cc([C@H]2c3[nH]c4ccccc4c3C[C@H]3C(=O)N4[C@@H](c5cc(OC)c(OC)c(OC)c5)c5[nH]c6ccccc6c5C[C@H]4C(=O)N23)cc(OC)c1OC,"inconclusive: 50.1 µM [inhibitor, partial curve, poor fit]",–
Cc1ccc(S(=O)(=O)Nc2cc(=O)[nH]c(SCC(=O)Nc3ccccc3C(F)(F)F)n2)cc1,"inconclusive: 0.794 µM [inhibitor, full curve, poor fit]",–
CCCC(=O)N1CCN(c2ccc([N+](=O)[O-])cc2Cl)CC1,inactive,–
CN(CC(O)COc1ccc2ccccc2c1)C1CCCCC1 (centres undefined),"inconclusive: 0.0891 µM [inhibitor, full curve, poor fit]",–
CSc1cccc(NC(=O)c2ccc3c(c2)c(C)c(C)n3Cc2ccc(F)cc2)c1,"inconclusive: 7.94 µM [inhibitor, partial curve, poor fit]",–
Cc1cccc(C(=O)NC2C(=O)NNC2c2ccc(Cl)cc2)c1 (centres undefined),inactive,–
c1ccc(CCNc2ccnc3cc4ccccc4cc23)cc1,"inconclusive: 50.1 µM [inhibitor, partial curve, poor fit]",–
CCc1nnc(NS(=O)(=O)c2ccc(NC(=S)NC(=O)/C=C/c3cccs3)cc2)s1,"inconclusive: 35.5 µM [inhibitor, single point]",–
Cc1ccc(NC(=O)C2CC(=O)Nc3ncnn32)cc1Cl (centres undefined),inactive,–
C[C@@H]1CN([C@H](C)CO)C(=O)c2cc(NC(=O)Nc3ccc(C(F)(F)F)cc3)ccc2O[C@H]1CN(C)S(=O)(=O)c1ccc(Cl)cc1,"inconclusive: 50.1 µM [inhibitor, partial curve, poor fit]",–
COc1cccc(NC(=O)CSc2ccccn2)c1,inactive,–
COC(=O)c1cc(S(=O)(=O)Nc2c(C)cccc2C)cn1C,"inconclusive: 44.7 µM [inhibitor, partial curve, poor fit]",–
CCOCc1nnc(NC(=O)c2cc(C(=O)OC)cc([N+](=O)[O-])c2)s1,"inconclusive: 44.7 µM [inhibitor, partial curve, poor fit]",–

# Of the compounds above, these contain two or more sulfur atoms:
Compound,Potency,"activity change, negative = inhibition"
Cn1cc(SCC(=O)Nc2nc3ccccc3s2)c2ccccc21,inactive,–
[O-]C(=C(C(=S)Nc1cccc2ccccc12)[n+]1cccc(CO)c1)c1ccc(Cl)s1,inactive,–
O=S(=O)(Nc1ccc(Cl)cc1)c1ccc(N2CCOCC2)c(NC(=S)NC2CC2)c1,inactive,–
Cc1ccc(S(=O)(=O)Nc2cc(=O)[nH]c(SCC(=O)Nc3ccccc3C(F)(F)F)n2)cc1,"inconclusive: 0.794 µM [inhibitor, full curve, poor fit]",–
CCc1nnc(NS(=O)(=O)c2ccc(NC(=S)NC(=O)/C=C/c3cccs3)cc2)s1,"inconclusive: 35.5 µM [inhibitor, single point]",–

# Additional entries

Compound,Potency,"activity change, negative = inhibition"
CCOC(=O)c1ccccc1NC(=O)CSc1ncc2c(n1)-c1ccccc1N(CC)S2(=O)=O,"inconclusive: 100 µM [inhibitor, partial curve, poor fit]",–
Cc1ccc(NC(=O)Cn2c(=O)nc(-c3ccccc3F)c3cc(Cl)ccc32)c(Br)c1,"inconclusive: 141 µM [inhibitor, partial curve, poor fit]",–
CC(=O)c1ccc2c(c1)C1C=CCC1C(c1ccncc1)N2 (centres undefined),"inconclusive: 28.2 µM [inhibitor, partial curve]",–
O=C(c1cccs1)N1C[C@H](n2cc(-c3ccc(F)cc3)nn2)[C@@H](O)C[C@@H]1c1ccc(Cl)cc1,"inconclusive: 0.316 µM [inhibitor, full curve]",–
CC(C)(C)OC(=O)N1CCC[C@H]1C(=O)NCc1ccc(Cl)cc1Cl,inactive,–
C[C@@H]1CN([C@H](C)CO)C(=O)CCCn2nncc2CO[C@@H]1CN(C)C(=O)C1CCCCC1,"inconclusive: 50.1 µM [inhibitor, partial curve, poor fit]",–
Cc1ccc(Cl)c2c(N=Nc3ccccc3)c(O)[nH]c12,"inconclusive: 31.6 µM [inhibitor, single point]",–
Cc1occc1C(=O)N/N=C/c1ccc[nH]1,"inconclusive: 70.8 µM [inhibitor, partial curve, poor fit]",–
Cc1ccc(N2C(=O)c3ccccc3NC2C(C)Cc2ccc3c(c2)OCO3)cc1 (centres undefined),"inconclusive: 50.1 µM [inhibitor, partial curve]",–
CN1C(=O)NC(c2ccccc2[N+](=O)[O-])C2=C1CC(C)(C)CC2=O (centres undefined),"inconclusive: 17.8 µM [inhibitor, partial curve]",–
O=C(Nc1cccc(Cl)c1)C1CCCN(S(=O)(=O)c2cnc[nH]2)C1 (centres undefined),"inconclusive: 1.26 µM [inhibitor, full curve, poor fit]",–
CC(C)n1nnnc1SCC(=O)NNC(=O)C1CCCCC1,"inconclusive: 0.398 µM [inhibitor, full curve, poor fit]",–
O=C(O)[C@@H]1CCCN1C(=O)c1ccco1,inactive,–
CN(Cc1ccccc1)C(C(=O)NC1CCCCC1)c1ccc(Cl)cc1 (centres undefined),"inconclusive: 39.8 µM [inhibitor, partial curve, poor fit]",–
CC1(C)CC(=O)C(C(C2=C(O)CC(C)(C)CC2=O)c2ccc(O)c([N+](=O)[O-])c2)=C(O)C1,inactive,–
Cc1ccc(COC(=O)CCN=C2NS(=O)(=O)c3ccccc32)cc1,"inconclusive: 3.98 µM [inhibitor, full curve, poor fit]",–
Cc1ccc(S(=O)(=O)N2CCN(C(=O)c3ccc(-n4cncn4)c([N+](=O)[O-])c3)CC2)c(C)c1,"inconclusive: 0.1 µM [inhibitor, full curve, poor fit]",–
CCC1C/C(=C\c2cc(OC)c(OC)cc2OC)C(=O)/C(=C/c2cc(OC)c(OC)cc2OC)C1 (centres undefined),"inconclusive: 31.6 µM [inhibitor, partial curve]",–
COc1ccc2nc3sc(C(=O)N4CCN(c5ccccc5)CC4)cc3cc2c1,"inconclusive: 7.94 µM [inhibitor, partial curve, poor fit]",–
COc1ccc(N2C(=O)[C@@H]3[C@H](C2=O)[C@H]2c4ccccc4C=CN2[C@@H]3C(=O)Nc2ccccc2)cc1,"inconclusive: 25.1 µM [inhibitor, partial curve]",–
